For 23 compounds, T/C and survivor count results are on record in PubChem BioAssay AID192 (DTP/NCI, 2004).

The assay deals with BDF1 mice, B16 melanoma ip, median survival T/C. In words: NCI In Vivo Anticancer Drug Screen. Data for tumor model B16 Melanoma (intraperitoneal) in B6D2F1 (BDF1) mice. Particulars: T/C endpoint: median survival time, higher T/C = longer survival. On the procedure: The antitumor activity of compounds was measured in mice bearing transplantable tumors. Survival or tumor size were measured and the results are expressed as the measurement made in the treated group (T) divided by the measurement made in the vehicle treated control group (C). The tumor model used in this assay is B16 Melanoma (intraperitoneal) in B6D2F1 (BDF1) mice

The mark [1] stands for this setting: dose: 200.0 mg/kg/injection, schedule: Q01DX009 (ip), vehicle: saline with Tween-80.
Where [2] appears, read: dose: 12.5 mg/kg/injection, schedule: Q01DX009 (ip), vehicle: Klucel (hydroxypropylcellulose) (HPC).
Where [3] appears, read: dose: 25.0 mg/kg/injection, schedule: Q01DX009 (ip), vehicle: Klucel (hydroxypropylcellulose) (HPC).
The mark [4] stands for this setting: dose: 6.25 mg/kg/injection, schedule: Q01DX009 (ip), vehicle: saline.
Setting [5] is: dose: 25.0 mg/kg/injection, schedule: Q01DX009 (ip), vehicle: saline.
The mark [6] stands for this setting: dose: 50.0 mg/kg/injection, schedule: Q01DX009 (ip), vehicle: Klucel (hydroxypropylcellulose) (HPC).
Where [7] appears, read: dose: 100.0 mg/kg/injection, schedule: Q01DX009 (ip), vehicle: Klucel (hydroxypropylcellulose) (HPC).

The list is a part of this screen's results and no random one: it is rich in T/C values a quarter to a half above the control, in often repeated tests (any T/C) and in doses without a T/C. Other doses and runs of a compound stand elsewhere. T/C: endpoint of the treated group in % of that of the vehicle group. Some entries give survivors of the animals treated and no T/C: the source files T/C as zero there, which appears to mark a toxic dose or a test without result, not a measured value. Some survivor counts are full or nearly so, which does not show that the dose was tolerated: survival well below the control is almost never listed, so the zero probably covers shortened survival too. Survivors were counted at the toxicity check, usually on the fifth day, unless a day is given; later deaths do not show. Schedule codes are those of the source, taken here to give the interval after Q, in days (D) or hours (H), and the number of doses after X. Additions like (4×) count equal records among those shown. For survival time, the PubChem record calls one and a half times the control and up active, and a quarter to a half above the control has no call in these data; cut-offs in other NCI protocols can differ.

For `O=C1c2ccccc2C(=O)c2c(NCCN3CCCCC3)ccc(NCCN3CCCCC3)c21`, the T/C (dose: 32.0 mg/kg/injection, schedule: Q01DX009 (ip), vehicle: acid diluted with saline) is 131 % of control. Besides, the survivor count is 10 of 10 (dose: 64.0 mg/kg/injection, schedule: Q01DX009 (ip), vehicle: acid diluted with saline); 6 of 10 (dose: 128.0 mg/kg/injection, schedule: Q01DX009 (ip), vehicle: acid diluted with saline); 0 of 10 (dose: 256.0 mg/kg/injection, schedule: Q01DX009 (ip), vehicle: acid diluted with saline).
On to `C[C@@H]1CC2=CC(=O)CC[C@@H]2[C@H]2CC[C@@]3(C)[C@@H](CC[C@]3(C)O)[C@@H]21`, for which the survivor count under setting [1] is 6 of 6.
As to `COc1cc(OC)c(/C=C/c2cc[n+](C)c3ccccc23)c(OC)c1`, for the setting “dose: 6.0 mg/kg/injection, schedule: Q01DX009 (ip), vehicle: saline”, the survivor count is reported as 7 of 10.
Consider `Nc1nc(=S)c2[nH]c(N=Nc3ccc(S(=O)(=O)O)cc3)nc2[nH]1`, for which the survivor count runs as follows: (dose: 25.0 mg/kg/injection, schedule: Q04DX003 (ip), vehicle: saline) 10 of 10; (dose: 50.0 mg/kg/injection, schedule: Q04DX003 (ip), vehicle: saline) 10 of 10; (dose: 100.0 mg/kg/injection, schedule: Q04DX003 (ip), vehicle: saline) 4 of 10.
Regarding `CC1CCC2(CC1)CCN(CCCN(C)C)CC2`, the survivor count (dose: 200.0 mg/kg/injection, schedule: Q01DX009 (ip), vehicle: saline) was 5 of 10.
With `CC(=O)Oc1ccc(OC(C)=O)c2c1C(=O)C=CC2=O`, the survivor count is reported as 9 of 10 (dose: 2.0 mg/kg/injection, schedule: Q01DX009 (ip), vehicle: Klucel (hydroxypropylcellulose) (HPC)); 10 of 10 (dose: 3.12 mg/kg/injection, schedule: Q01DX009 (ip), vehicle: Klucel (hydroxypropylcellulose) (HPC)); 6 of 10 (dose: 6.25 mg/kg/injection, schedule: Q01DX009 (ip), vehicle: Klucel (hydroxypropylcellulose) (HPC)); 10 of 10 under setting [2]; 0 of 10 under setting [3].
Consider `CN(C)CCSc1cc(O)c2c(c1O)C(=O)c1ccccc1C2=O`, for which the survivor count runs as follows: (dose: 200.0 mg/kg/injection, schedule: Q01DX009 (ip), vehicle: water) 10 of 10; (dose: 400.0 mg/kg/injection, schedule: Q01DX009 (ip), vehicle: water) 7 of 10.
As for `O=NNc1ccccn1`, the T/C under setting [4] is 134 % of control. Moreover, the survivor count under setting [5] is 10 of 10.
For `OCCN1CCN(CCCN2c3ccccc3Sc3cccnc32)CC1`, the survivor count is 7 of 10 (dose: 4.68 mg/kg/injection, schedule: Q01DX009 (ip), vehicle: saline) and 4 of 10 (dose: 100.0 mg/kg/injection, schedule: Q01DX009 (ip), vehicle: saline). Further, where the note is “dose: 50.0 mg/kg/injection, schedule: Q01DX009 (ip), vehicle: saline”, the T/C is 127 % of control.
Turning to `C=C1CCN(c2ccccc2Cl)C1=O`, the T/C (dose: 64.0 mg/kg/injection, schedule: Q01DX009 (ip), vehicle: saline + alcohol) was 128 % of control.
On to `O=C1CC(NC(=O)OCc2ccccc2)C(=O)O1` (centres undefined), for which, where the note is “dose: 400.0 mg/kg/injection, schedule: Q01DX009 (ip), vehicle: alcohol”, the survivor count is on record as 10 of 10.
Take `COc1ccc(N=C=Nc2ccc(OC)cc2)cc1`: the survivor count under setting [6] was 9 of 10.
Consider `NNC(=O)c1ccc(Cl)cc1Cl`, for which the survivor count is, setting by setting: under setting [6], 10 of 10; (dose: 50.0 mg/kg/injection, schedule: Q04DX003 (ip), vehicle: Klucel (hydroxypropylcellulose) (HPC)) 6 of 10.
With `CC[C@@H](C(=O)[C@@H](C)[C@@H](O)[C@H](C)CCc1ccc(C)c(O)c1C(=O)O)[C@H]1O[C@](CC)([C@H]2CC[C@](O)(CC)[C@H](C)O2)C[C@@H]1C`, the survivor count under setting [2] is 6 of 10.
For `COC1CC(C)C(OC)c2cc(O)cc(c2O)NC(=O)/C(C)=C/C=C\C(C)C(OC(N)=O)/C(C)=C\C(C)C1OC` (centres undefined), the T/C by setting is: (dose: 1.25 mg/kg/injection, schedule: Q01DX009 (ip), vehicle: Klucel (hydroxypropylcellulose) (HPC), evaluated on day 45) 137 % of control; (dose: 1.25 mg/kg/injection, schedule: Q01DX009 (ip), vehicle: Klucel (hydroxypropylcellulose) (HPC), evaluated on day 60) 149 % of control. In addition, the survivor count runs as follows: (dose: 10.0 mg/kg/injection, schedule: Q01DX009 (ip), vehicle: Klucel (hydroxypropylcellulose) (HPC)) 0 of 10 (2×); (dose: 10.0 mg/kg/injection, schedule: Q01DX009 (ip), vehicle: saline + alcohol) 3 of 10; (dose: 20.0 mg/kg/injection, schedule: Q01DX009 (ip), vehicle: saline + alcohol) 1 of 10.
Consider `O=C1C(Cl)=C(Cl)C(=O)c2ccccc21`, for which the survivor count (dose: 20.0 mg/kg/injection, schedule: Q01DX009 (ip), vehicle: saline with Tween-80) is given as 10 of 10.
As for `CC1CCC2(C(=O)O)CCC3(C)C(=CCC4C5(C)CCC(O)C(C)(C)C5CCC43C)C2C1C` (centres undefined), the survivor count (dose: 400.0 mg/kg/injection, schedule: Q01DX009 (ip), vehicle: Klucel (hydroxypropylcellulose) (HPC)) is given as 10 of 10.
Consider `COC(=O)[C@H]1[C@H]2C[C@@H]3c4[nH]c5cc(OC)ccc5c4CCN3C[C@H]2C[C@@H](OC(=O)c2cc(OC)c(OC)c(OC)c2)[C@@H]1OC`, for which the survivor count (dose: 1.56 mg/kg/injection, schedule: Q01DX009 (ip), vehicle: saline) was 10 of 10; the survivor count (dose: 3.12 mg/kg/injection, schedule: Q01DX009 (ip), vehicle: saline) is listed as 10 of 10; the survivor count under setting [4] is reported as 9 of 10; the survivor count (dose: 12.5 mg/kg/injection, schedule: Q01DX009 (ip), vehicle: saline) was 10 of 10; the survivor count under setting [5] is 9 of 10.
As for `CC(=O)OCC1OC(n2cc(CBr)nn2)C(OC(C)=O)C(OC(C)=O)C1OC(C)=O` (centres undefined), the survivor count under setting [7] is on record as 8 of 10.
On to `CCS(=O)(=O)OCCCl`, for which the survivor count under setting [1] is 0 of 10.
For `O=[N+]([O-])/C=C/c1ccc([N+](=O)[O-])cc1Cl`, the survivor count is reported as 10 of 10 (dose: 1.5 mg/kg/injection, schedule: Q01DX009 (ip), vehicle: Klucel (hydroxypropylcellulose) (HPC)); 10 of 10 (dose: 3.0 mg/kg/injection, schedule: Q01DX009 (ip), vehicle: Klucel (hydroxypropylcellulose) (HPC)); 10 of 10 under setting [3]; 10 of 10 under setting [6]; 7 of 10 under setting [7].
As to `COc1cc2c(c(OC)c1OC)-c1ccc(OC)c(=O)cc1[C@@H](NC(=O)c1ccccc1)CC2`, the T/C is 142 % of control (dose: 0.25 mg/kg/injection, schedule: Q01DX009 (ip), vehicle: Klucel (hydroxypropylcellulose) (HPC), evaluated on day 45); 130 % of control (dose: 0.25 mg/kg/injection, schedule: Q01DX009 (ip), vehicle: Klucel (hydroxypropylcellulose) (HPC), evaluated on day 60); 147 % of control (dose: 0.5 mg/kg/injection, schedule: Q01DX009 (ip), vehicle: Klucel (hydroxypropylcellulose) (HPC), evaluated on day 45); 147 % of control (dose: 0.5 mg/kg/injection, schedule: Q01DX009 (ip), vehicle: Klucel (hydroxypropylcellulose) (HPC), evaluated on day 60). Also, the survivor count (dose: 4.0 mg/kg/injection, schedule: Q01DX009 (ip), vehicle: Klucel (hydroxypropylcellulose) (HPC)) is 7 of 10 (2×).
Consider `CC(C)N1C(=O)C=C(c2ccc([N+](=O)[O-])cc2)C1=O`, for which the survivor count reads like this: (dose: 6.25 mg/kg/injection, schedule: Q01DX009 (ip), vehicle: saline with Tween-80) 10 of 10; (dose: 25.0 mg/kg/injection, schedule: Q01DX009 (ip), vehicle: saline with Tween-80) 10 of 10.
